The structures appear in SMILES notation. The list shows a part of the results.

This assay deals with T1, CTL2-GFP (C. trachomatis L2/434/Bu, GFP-expressing).
T1 construct: L2/434/Bu, GFP-expressing
Set-up: species or system HeLa; Intracellular C. trachomatis growth in HeLa cells, bulk GFP fluorescence relative to DMSO. Conditions: bulk GFP, single well; 28.5 h, 10 µM; inhibitor.
Regarding `Cc1cccc(C(=O)Nc2nnc(C3=COCCO3)o2)c1` [CBK287406], the “% of control remaining” value is recorded as 132.716%.

Consider `Cc1nc(N2CCN(Cc3ccc4c(c3)OCO4)CC2)c2c(C)c(C)sc2n1` [CBK266739], for which the “% of control remaining” value was determined as 105.291%.

On to `O=C(CSc1cccc2ccccc12)Nc1ccc([N+](=O)[O-])cc1O` [CBK268696], for which the “% of control remaining” value is 84.7644%.

For the compound `Cc1ccc(-c2cc(C(=O)NCC3(C)COC3)no2)cc1` [CBK281744], the “% of control remaining” value is reported as 161.143%.

Regarding `C[C@@H]1CN(C(=O)c2n[nH]c3ccccc23)C[C@H](C)O1` [CBK200232], the “% of control remaining” value stood at 141.316%.

As for `Cc1ccc(Cc2nc(-c3cccnc3)no2)cc1` [CBK288141], the “% of control remaining” value stood at 119.513%.

For `Cc1nn(-c2ccccc2)c2[nH]c(=O)c(CNC3CCC3)cc12` [CBK282897], the “% of control remaining” value stood at 99.5155%.

Consider `CC(=O)NCC(=O)N(c1ccccc1)C1(C(=O)NC(c2ccccc2)c2ccccc2)CCCC1` [CBK100884], for which the “% of control remaining” value amounted to 110.9%.

On to `O=S(=O)(NCc1nc2ccccc2[nH]1)c1ccc(Cl)c(Cl)c1` [CBK261137], for which the “% of control remaining” value was found to be 108.689%.

Consider `CC(CCc1ccc(F)cc1)NC(=O)c1cc2c([nH]c1=O)CCC2` (stereo not drawn) [CBK281512], for which the “% of control remaining” value is 154.091%.

As for `COc1nccnc1OC1CCN(CC(N)=O)CC1` [CBK084248], the “% of control remaining” value came to 113.322%.

On to `OCC1CCCN1c1cc(Cl)nc2ccnn12` (stereo not drawn) [CBK037011], for which the “% of control remaining” value amounted to 102.731%.

For the compound `Cn1nc(-c2ccc(S(=O)(=O)Nc3ccc4cn[nH]c4c3)s2)cc1C(F)(F)F` [CBK067156], the “% of control remaining” value amounted to 127.061%.

Regarding `COc1cc(CNCc2ccco2)ccc1OCC(N)=O` [CBK270204C], the “% of control remaining” value amounted to 116.515%.

For `Cc1nc(S(=O)(=O)Nc2ccc3[nH]ccc3c2)cn1C` [CBK156800], the “% of control remaining” value came to 123.413%.

As to `CCCC/C=C/c1cn2ccnc2c(N2CCN(c3ccccn3)CC2)n1` [CBK066224], the “% of control remaining” value is 184.365%.

With `O=C(O)C1CCCN(C(=O)Cn2ccc3ccc(OCc4ccccc4)cc32)C1` (stereo not drawn) [CBK286814], the “% of control remaining” value turned out to be 157.807%.

For the compound `COc1ccc(C(C)C)cc1-c1cnc(N)c(Nc2ccc3[nH]ccc3c2)n1` [CBK063827], the “% of control remaining” value was determined as 209.128%.

For the compound `Cc1cc(C)c2oc(-c3ccc(Cl)c(NC(=O)Cc4ccc(Cl)cc4)c3)nc2c1` [CBK264695], the “% of control remaining” value is 128.447%.

With `CC(=O)O/C(N)=N/c1nonc1N` [CBK021885], the “% of control remaining” value is recorded as 117.403%.

Regarding `COc1ccc(CN[C@H]2[C@H](O)[C@@H](N3CCCC3)[C@@H]3OC[C@H]2O3)cc1` [CBK288827], the “% of control remaining” value is reported as 180.901%.

With `COCCOCN1C(=O)CC2(C1=O)C(=O)N(Cc1ccc(OC(F)(F)F)cc1)c1ccccc12` (stereo not drawn) [CBK075942], the “% of control remaining” value is given as 181.369%.

For `Cc1c(NCc2ccc3c(c2)n(C)c(=O)n3C)cccc1C(=O)O` [CBK287237], the “% of control remaining” value came out at 107.77%.

Consider `Fc1ccc(Oc2nccnc2N2CCN(Cc3cccnc3)CC2)cc1` [CBK083011], for which the “% of control remaining” value came to 99.6696%.

`c1ccc(CCN2CCC(c3nc(-c4ccccc4)no3)CC2)cc1` [CBK051454]: the “% of control remaining” value is listed as 108.298%.

As for `CN(c1cc(F)ccc1[N+](=O)[O-])S(C)(=O)=O` [CBK001365], the “% of control remaining” value came to 94.1557%.

As for `CN(CC(=O)O)S(=O)(=O)c1cccc2cccc(Cl)c12` [CBK268433], the “% of control remaining” value is on record as 112.783%.

Turning to `CC(=O)Nc1ccc(NC(=O)CSCC(=O)O)cc1` [CBK226269], the “% of control remaining” value turned out to be 158.607%.

On to `N#Cc1ccc(CNC(=O)N2CCc3ccccc3C2)cc1` [CBK155287], for which the “% of control remaining” value was determined as 158.853%.

Take `COc1ccc(C(=O)C2=C(O)C(=O)N(CCN(C)C)C2c2ccncc2)c(C)c1` (stereo not drawn) [CBK264867]: the “% of control remaining” value is 134.342%.

On to `Cc1cc(C)n2ncc(C(=O)NCC(c3cccs3)N3CCCC3)c2n1` (stereo not drawn) [CBK305675], for which the “% of control remaining” value turned out to be 95.2446%.

On to `CC(C)CNC(=O)c1cc([C@H]2CC[C@H](CNC(=O)c3cnn(C)c3)CC2)nc2ccccc12` [CBK285867], for which the “% of control remaining” value came to 101.225%.

Consider `CCC(NC(=O)C(c1cccs1)c1cccs1)c1ccc(F)cc1` (stereo not drawn) [CBK286339], for which the “% of control remaining” value was determined as 82.1142%.

As to `Cc1nccn1CCNC(=O)CC1C(=O)N(C)c2ccccc21` (stereo not drawn) [CBK281977], the “% of control remaining” value is 131.422%.

On to `COc1ccc(CCNC(=O)N2CCCCC2CO)cc1` (stereo not drawn) [CBK156188], for which the “% of control remaining” value was found to be 131.141%.

Turning to `CC(C)(C)OC(=O)N1CCN(C(=O)N[C@@H](Cc2ccccc2)C(=O)O)CC1` [CBK286785], the “% of control remaining” value is 94.8392%.

For the compound `O=C(CC1NC(=O)NC1=O)Nc1ccc(C(=O)O)cc1` (stereo not drawn) [CBK267355], the “% of control remaining” value is listed as 155.896%.

For the compound `CCN(CC)CC1CCCN(C(=O)Cn2ccc3ccc(F)cc32)C1` (stereo not drawn) [CBK282146], the “% of control remaining” value amounted to 140.118%.

As for `COc1cccc(-c2ccc(NC(=O)c3ccc(Cn4cnnn4)cc3)cc2)c1` [CBK285850], the “% of control remaining” value was 130.713%.

For the compound `COc1ccc(-c2ccc(C(=O)N(C)C)c(N(C)C(C)=O)n2)cc1` [CBK076500], the “% of control remaining” value is listed as 109.256%.

Consider `O=C(NCCc1cc2ccccc2[nH]1)Nc1cccc2ccccc12` [CBK269246], for which the “% of control remaining” value is 79.2422%.

For `CC(C)OCC(=O)NC1CCCc2nc(N3CCC(CO)CC3)ncc21` (stereo not drawn) [CBK307520], the “% of control remaining” value came out at 149.825%.

Regarding `O=C(O)CN(c1ccc(F)cc1)S(=O)(=O)c1ccc2c(c1)OCCO2` [CBK287096], the “% of control remaining” value amounted to 110.678%.

In the case of `Oc1ccccc1-c1ccnc(SC(F)F)n1` [CBK021971], the “% of control remaining” value was 149.062%.

With `c1ccc2c(c1)CCN(Cc1ccc3ccccc3c1)C2` [CBK126397], the “% of control remaining” value was determined as 77.0455%.

In the case of `CCCN1CCC(NC(=O)Cn2nnc3ccccc3c2=O)CC1` [CBK305581], the “% of control remaining” value is on record as 123.179%.

Regarding `CN(Cc1cccn1C)C(=O)c1cc(-c2cnn(C)c2)[nH]n1` [CBK283325], the “% of control remaining” value is reported as 122.449%.

As to `Cc1ccc(C#N)c(NCc2ccccc2CN2CCCC2CO)n1` (stereo not drawn) [CBK304076], the “% of control remaining” value worked out at 121.578%.

As to `COc1c(C)cnc(CNC2CCCN(Cc3noc(C)n3)C2)c1C` (stereo not drawn) [CBK305350], the “% of control remaining” value was 151.515%.

For the compound `O=S(=O)(Nc1cccc(OC(F)(F)F)c1)c1ccc(N2CCNCC2)c2ccccc12` [CBK003935C], the “% of control remaining” value is 61.8783%.

For the compound `COCC(=O)N1CCC2(CC1)CC(=O)c1cc(Cl)cc(Cl)c1O2` [CBK156440], the “% of control remaining” value came out at 107.995%.

Values taken from article PMC12040169 (PLOS Biology, 2025).
